Results are given in words; binding and its absence hold for the method and conditions named. In cells and extracts the contact can be indirect. For part of these data: Binding can be weak; no strength is given.

Protein sequences, listed by entry. Tags and fused reporters are not part of them. Lines headed by an entry give the natural chain unless they say otherwise; changes in a name come on top. Residues count along the entry.
UniProt P22366: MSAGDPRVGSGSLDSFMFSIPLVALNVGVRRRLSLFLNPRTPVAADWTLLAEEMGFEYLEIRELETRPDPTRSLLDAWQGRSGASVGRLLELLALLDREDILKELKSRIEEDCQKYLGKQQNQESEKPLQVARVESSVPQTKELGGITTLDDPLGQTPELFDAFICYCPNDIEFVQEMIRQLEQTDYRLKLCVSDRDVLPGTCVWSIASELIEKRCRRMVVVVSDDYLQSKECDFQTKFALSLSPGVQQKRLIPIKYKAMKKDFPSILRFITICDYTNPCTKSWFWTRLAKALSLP
UniProt Q9QUN7, residues 25-784: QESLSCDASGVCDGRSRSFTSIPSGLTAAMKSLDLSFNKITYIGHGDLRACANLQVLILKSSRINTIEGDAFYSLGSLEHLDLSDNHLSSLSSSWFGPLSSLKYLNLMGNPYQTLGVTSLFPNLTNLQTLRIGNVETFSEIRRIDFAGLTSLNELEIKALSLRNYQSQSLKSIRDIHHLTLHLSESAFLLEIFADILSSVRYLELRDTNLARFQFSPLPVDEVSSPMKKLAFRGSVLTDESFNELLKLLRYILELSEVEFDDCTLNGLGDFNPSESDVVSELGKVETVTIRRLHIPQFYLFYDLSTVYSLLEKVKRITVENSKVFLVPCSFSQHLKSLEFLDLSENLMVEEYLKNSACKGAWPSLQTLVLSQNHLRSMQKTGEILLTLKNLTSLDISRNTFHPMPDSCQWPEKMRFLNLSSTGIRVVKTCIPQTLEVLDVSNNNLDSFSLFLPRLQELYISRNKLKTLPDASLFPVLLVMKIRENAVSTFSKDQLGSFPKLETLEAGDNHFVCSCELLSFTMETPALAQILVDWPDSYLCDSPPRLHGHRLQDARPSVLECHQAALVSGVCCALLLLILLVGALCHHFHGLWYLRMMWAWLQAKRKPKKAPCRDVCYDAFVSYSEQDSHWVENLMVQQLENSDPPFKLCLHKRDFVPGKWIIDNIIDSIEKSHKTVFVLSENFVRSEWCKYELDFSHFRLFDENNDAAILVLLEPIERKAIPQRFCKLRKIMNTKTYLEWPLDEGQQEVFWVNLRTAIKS
UniProt Q9QUK6, residues 26-835: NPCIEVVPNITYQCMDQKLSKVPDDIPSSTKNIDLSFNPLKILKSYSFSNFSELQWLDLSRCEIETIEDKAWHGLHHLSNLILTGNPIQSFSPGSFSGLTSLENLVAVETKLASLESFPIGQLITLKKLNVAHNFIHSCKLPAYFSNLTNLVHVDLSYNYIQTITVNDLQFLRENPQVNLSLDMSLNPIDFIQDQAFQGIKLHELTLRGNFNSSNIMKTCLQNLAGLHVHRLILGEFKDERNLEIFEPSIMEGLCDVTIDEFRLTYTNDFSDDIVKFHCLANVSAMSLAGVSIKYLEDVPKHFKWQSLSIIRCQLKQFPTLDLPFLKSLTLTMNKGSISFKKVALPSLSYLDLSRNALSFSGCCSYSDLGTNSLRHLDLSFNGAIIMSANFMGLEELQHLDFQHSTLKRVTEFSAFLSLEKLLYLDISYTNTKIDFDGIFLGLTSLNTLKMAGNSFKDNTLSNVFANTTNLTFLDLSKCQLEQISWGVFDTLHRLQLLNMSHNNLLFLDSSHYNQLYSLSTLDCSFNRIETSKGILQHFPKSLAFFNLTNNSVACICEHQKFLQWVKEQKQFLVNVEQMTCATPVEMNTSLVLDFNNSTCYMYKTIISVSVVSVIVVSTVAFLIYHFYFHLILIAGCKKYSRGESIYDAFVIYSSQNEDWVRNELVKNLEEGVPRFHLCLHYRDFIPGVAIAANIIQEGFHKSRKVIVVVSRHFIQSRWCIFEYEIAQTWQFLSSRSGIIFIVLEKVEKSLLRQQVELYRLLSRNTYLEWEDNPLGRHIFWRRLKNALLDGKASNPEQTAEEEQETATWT
UniProt P41245: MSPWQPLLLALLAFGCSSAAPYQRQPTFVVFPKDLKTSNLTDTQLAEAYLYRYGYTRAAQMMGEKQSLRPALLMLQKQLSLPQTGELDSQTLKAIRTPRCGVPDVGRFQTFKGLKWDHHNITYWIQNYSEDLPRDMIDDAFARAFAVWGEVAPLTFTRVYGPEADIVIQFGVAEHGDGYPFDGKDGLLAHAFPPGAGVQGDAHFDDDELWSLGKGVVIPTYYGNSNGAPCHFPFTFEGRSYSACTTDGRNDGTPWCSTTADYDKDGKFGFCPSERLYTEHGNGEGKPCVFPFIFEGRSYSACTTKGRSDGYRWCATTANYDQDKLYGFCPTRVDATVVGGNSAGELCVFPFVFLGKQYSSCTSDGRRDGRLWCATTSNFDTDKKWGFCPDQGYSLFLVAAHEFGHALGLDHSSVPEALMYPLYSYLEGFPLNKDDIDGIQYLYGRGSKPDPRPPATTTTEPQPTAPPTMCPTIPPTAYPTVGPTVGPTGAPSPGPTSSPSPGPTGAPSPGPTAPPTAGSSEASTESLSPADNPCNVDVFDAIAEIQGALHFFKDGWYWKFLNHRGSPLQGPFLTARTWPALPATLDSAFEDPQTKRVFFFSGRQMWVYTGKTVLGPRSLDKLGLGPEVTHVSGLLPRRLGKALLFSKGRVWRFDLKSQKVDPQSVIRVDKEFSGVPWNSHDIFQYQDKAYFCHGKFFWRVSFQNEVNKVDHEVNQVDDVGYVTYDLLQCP
UniProt P33434: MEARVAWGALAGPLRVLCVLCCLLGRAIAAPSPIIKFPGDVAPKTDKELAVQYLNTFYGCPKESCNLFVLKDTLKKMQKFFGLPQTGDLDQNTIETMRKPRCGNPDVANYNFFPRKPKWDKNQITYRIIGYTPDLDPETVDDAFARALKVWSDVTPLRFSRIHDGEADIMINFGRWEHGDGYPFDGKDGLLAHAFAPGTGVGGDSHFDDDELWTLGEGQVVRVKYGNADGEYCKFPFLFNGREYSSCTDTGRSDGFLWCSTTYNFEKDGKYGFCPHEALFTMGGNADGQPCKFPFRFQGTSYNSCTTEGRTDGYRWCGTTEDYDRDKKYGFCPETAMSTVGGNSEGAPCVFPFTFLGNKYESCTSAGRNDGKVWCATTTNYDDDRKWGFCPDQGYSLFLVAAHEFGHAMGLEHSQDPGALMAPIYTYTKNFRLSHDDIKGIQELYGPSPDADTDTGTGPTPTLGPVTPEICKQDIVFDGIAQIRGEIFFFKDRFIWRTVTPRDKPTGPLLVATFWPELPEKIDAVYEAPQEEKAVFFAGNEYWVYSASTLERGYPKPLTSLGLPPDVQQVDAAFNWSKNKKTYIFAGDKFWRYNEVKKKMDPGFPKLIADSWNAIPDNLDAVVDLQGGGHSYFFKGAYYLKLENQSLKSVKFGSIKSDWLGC

Three substances from paper PMC8262464 can be followed below.

The target in one assay is MyD88 HA (UniProt P22366). Nature of the assay: co-IP; reverse co-IP: HEK293T cotransfected; 200 ug lysate incubated overnight with anti-HA agarose or anti-c-MYC agarose, eluted with HA or c-MYC peptide, blot probed for MMP2.
In assay [1] the target is murine TLR2 HA (full-length Tlr2-HA) (murine) (UniProt Q9QUN7). The assay is described as above.
A further assay has as its target murine TLR4 Myc (murine) (UniProt Q9QUK6). The assay is described as above.
Another assay deals with MMP9 Flag (UniProt P41245). Nature of the assay: co-IP; HEK293T cotransfected (5 ug of each plasmid, Lipofectamine 3000); 200 ug lysate incubated overnight with anti-FLAG M2 magnetic beads, eluted with 3x FLAG peptide, Western blot; Mmp2-Flag or Mmp9-Flag with Tlr2-HA, Tlr4-Myc, both, or Myd88-HA.
Assay [2] has as its target murine MMP2 Flag (matrix metalloproteinase 2, full length) (murine) (UniProt P33434). The description is as above.

“murine MMP2 Flag (matrix metalloproteinase 2, full length) (from UniProt P33434) (enzyme)”: the binding entry with MyD88 HA is “no binding”; in assay [1] it was “binds”; in the assay with murine TLR4 Myc (murine), “binds”.
On to “murine TLR4 Myc (from UniProt Q9QUK6 26-835) (receptor)”, for which the binding entry with MMP9 Flag was “no binding”; in assay [2] it was “binds”.
Turning to MyD88 HA (from UniProt P22366 1-296), in assay [2], the binding entry was “no binding”.
